Among the data in the supplement of paper PMC11150407 are cell viability values, retold here.

As usually defined, the cell viability is a read-out of living cells in per cent, often relative to untreated cells.

Hit rate of the full screen: of about 2,100 compounds, about 180 (8.6%) showed an effect of 50% or more. The list shows a part of the results.

For this test, the system named is MOLM1 and UCSD/AML1 (averaged). Kind of test: cell viability relative to DMSO control (POC); higher = less growth inhibition. Conditions: 1 µM; 72 h. As for the experimental part: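 Primary viability screen in the 3q26 EVI1-high AML cell lines MOLM1 and UCSD/AML1 (1.5e3 cells/well, 384-well), compounds at 1 uM for 72 h. ATP CellTiter-Glo read-out given as percent of viable cells over DMSO control (POC), averaged over duplicates. DMSO was the negative control and 5 uM etoposide the positive control. This mapping covers the MicroSource Spectrum and Selleck anticancer libraries (drug names).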
Consider `CC1=CC(=O)c2c(O)cccc2C1=O`, for which the cell viability was 74.6%.
The same measure for `CC[C@@]1(O)C[C@H](O[C@H]2C[C@H](N(C)C)[C@H](O)[C@H](C)O2)c2c(cc3c(c2O)C(=O)c2c(O)cccc2C3=O)[C@H]1C(=O)OC`: 38.5%; for `COP(N)(=O)SC` (stereo unspecified): 111%; for `C[C@H](N)[C@H](O)c1ccc(O)c(O)c1`: 105%.
For `C=CC[C@]1(O)CC[C@H]2[C@@H]3CCC4=CC(=O)CCC4=C3C=C[C@@]21C`, the cell viability came out at 86.6%.
The same measure for `OC[C@@H]1CCCN2CCCC[C@H]12`: 83%; for `C1CCc2nnnn2CC1`: 96%; for `C/C(=C\c1csc(C)n1)[C@@H]1C[C@@H]2O[C@]2(C)CCC[C@H](C)[C@H](O)[C@@H](C)C(=O)C(C)(C)[C@@H](O)CC(=O)O1` [Epothilone B (EPO906)]: 13.4%.
Take `CC(Cc1ccc(O)cc1)NCC(O)c1cc(O)cc(O)c1` (stereo unspecified): the cell viability stood at 102%.
Take `Cc1ccccc1-n1c(Cn2cnc3c(N)ncnc32)nc2cccc(C)c2c1=O`: the cell viability came to 88%.
As for `CSc1nc(NC(C)C)nc(NC(C)C)n1`, the cell viability was determined as 102%.
On to `COc1ccc2c(c1)[C@]13CCCC[C@@H]1[C@H](C2)N(C)CC3`, for which the cell viability worked out at 97.6%.
For the compound `C=C[C@H]1CN2CC[C@H]1C[C@H]2[C@H](O)c1ccnc2ccccc12`, the cell viability was found to be 105%.
Turning to `C[C@H]1O[C@@H](O[C@H]2[C@@H](O)C[C@H](O[C@H]3[C@@H](O)C[C@H](O[C@H]4CC[C@@]5(C)[C@H](CC[C@@H]6[C@@H]5CC[C@]5(C)[C@@H](C7=CC(=O)OC7)[C@@H](O)C[C@]65O)C4)O[C@@H]3C)O[C@@H]2C)C[C@H](O)[C@@H]1O`, the cell viability worked out at 3.82%.
For `CC1=NCCc2c1[nH]c1cc(O)ccc21`, the cell viability was 96.2%.
The same measure for `O=C1C=CC(=O)c2c(O)cccc21`: 107%; for `C[C@]12CC[C@H]3[C@@H](CC[C@]4(O)C[C@@H](O)CC[C@]34C=O)[C@@]1(O)CC[C@@H]2C1=CC(=O)OC1`: 3.15%; for `O=C([O-])c1ccccc1-c1c2cc(Br)c(=O)cc-2oc2[c]([Hg+])c([O-])c(Br)cc12.[Na+].[Na+].[OH-]`: 87.1%.
Regarding `N#C/C(=C\c1cccc(O)c1)C(=O)O` [alpha-CYANO-3-HYDROXYCINNAMIC ACID], the cell viability is 94.3%.
The figure for `CC(=O)O[C@@H]1C[C@@]2(C)[C@H](c3ccoc3)C[C@H]3O[C@]32[C@]2(C)C(=O)C(O)=C3C(C)(C)C(=O)C=C[C@]3(C)[C@@H]12` is 19.3%.
The figure for `C#C[C@]1(O)CC[C@H]2[C@@H]3CCC4=CC(=O)CC[C@]4(C)[C@H]3CC[C@@]21C` is 93.8%; for `CC(C)[N+](C)(CCC(C(N)=O)(c1ccccc1)c1ccccc1)C(C)C` it is 115%; for `CC(C)CC(N(C)C)C1(c2ccc(Cl)cc2)CCC1` (stereo unspecified) it is 80.2%.
Regarding `COC(=O)[C@@H]1C[C@H](OC(C)=O)C(=O)[C@H]2[C@@]1(C)CC[C@H]1C(=O)O[C@H](c3ccoc3)C[C@]21C`, the cell viability was found to be 104%.
The figure for `CC[C@@]1(O)C[C@H](O)c2c(cc3c(c2O)C(=O)c2c(O)ccc(O)c2C3=O)[C@H]1C(=O)OC` is 99.6%; for `O=C(O)CCCc1ccc(N(CCCl)CCCl)cc1` it is 97.9%.
The figure for `Nc1ccncc1` is 100%; for `CC[C@H](C)[C@H]1O[C@]2(C=C[C@@H]1C)C[C@@H]1C[C@@H](C/C=C(\C)[C@@H](O[C@H]3C[C@H](OC)[C@@H](O[C@H]4C[C@H](OC)[C@@H](O)[C@H](C)O4)[C@H](C)O3)[C@@H](C)/C=C/C=C3\CO[C@@H]4[C@H](O)C(C)=C[C@@H](C(=O)O1)[C@]34O)O2.CO[C@H]1C[C@H](O[C@H]2[C@H](C)O[C@@H](O[C@@H]3/C(C)=C/C[C@@H]4C[C@@H](C[C@]5(C=C[C@H](C)[C@@H](C(C)C)O5)O4)OC(=O)[C@@H]4C=C(C)[C@@H](O)[C@H]5OC/C(=C\C=C\[C@@H]3C)[C@]54O)C[C@@H]2OC)O[C@@H](C)[C@@H]1O` it is 91.9%.
For `COc1cc([C@@H]2c3cc4c(cc3[C@H](OC(C)=O)[C@H]3COC(=O)[C@H]23)OCO4)cc(OC)c1OC`, the cell viability came out at 6.04%.
The same measure for `CC(C)=CC1C(C(=O)OCc2cccc(Oc3ccccc3)c2)C1(C)C` (stereo unspecified): 107%; for `C[CH2][Hg][S]c1ccccc1C(=O)[O-].[Na+]`: 99.6%; for `CC1(C)C(=O)C=C[C@]2(C)[C@H]3CC[C@@]4(C)[C@H](c5ccoc5)OC(=O)[C@H]5O[C@]54[C@]3(C)[C@H](O)C[C@@H]12`: 98.3%.
Consider `O=C1C=C2C=C[C@@H]3C[C@@]2(O1)[C@H]1CCCCN31`, for which the cell viability was determined as 108%.
On to `Oc1noc2c1CCNC2`, for which the cell viability was 110%.
Take `O=c1ccc2c(O)c3ccoc3cc2o1`: the cell viability was 91.2%.
The figure for `C/C=C(/C)C(=O)O[C@H]1CC[C@@]2(C)[C@@H]3CC[C@H]4[C@]5(O)C[C@H](O)[C@@]6(O)[C@@H](CN7C[C@@H](C)CC[C@H]7[C@@]6(C)O)[C@]5(O)C[C@@]42O[C@]13O` is 94.9%; for `CCCC(C)C1(CC)C(=O)NC(=S)NC1=O` (stereo unspecified) it is 96.6%.
In the case of `COc1cc([C@@H]2c3cc4c(cc3[C@H](O)[C@H]3COC(=O)[C@@H]23)OCO4)cc(OC)c1OC`, the cell viability worked out at 12.3%.
The figure for `CC(CCc1ccccc1)NC(C)C(O)c1ccc(O)cc1` (stereo unspecified) is 96%; for `COc1cccc(C2(O)CCCCC2CN(C)C)c1` (stereo unspecified) it is 107%.
The figure for `Cc1cc(OC(=O)N2CCCCC2)c(C(C)C)cc1[N+](C)(C)C` is 111%; for `C[N+](C)(C)CCCCCCCCCC[N+](C)(C)C` it is 99.5%.
The figure for `c1ccc2nc(N3CCNCC3)ccc2c1` is 104%.
For the compound `C[N+]1(C)[C@@H]2CC[C@H]1C[C@@H](OC(=O)C(CO)c1ccccc1)C2` (stereo partly specified), the cell viability turned out to be 108%.
The same measure for `CN1C[C@H](C(=O)N[C@]2(C)O[C@@]3(O)[C@@H]4CCCN4C(=O)[C@H](Cc4ccccc4)N3C2=O)C[C@@H]2c3cccc4[nH]cc(c34)C[C@H]21`: 112%.
The same measure for `NCCc1cc(O)c(O)cc1O`: 93.6%; for `CC(C)=CCC[C@]1(C)C=Cc2c(O)c3c(c(CC=C(C)C)c2O1)O[C@]12C(=C[C@@H]4C[C@H]1C(C)(C)O[C@@]2(C/C=C(/C)C(=O)O)C4=O)C3=O`: 1.06%.
The figure for `C#CCOS(=O)OC1CCCCC1Oc1ccc(C(C)(C)C)cc1` (stereo unspecified) is 89.9%; for `CC[C@@]1(O)C(=O)OCc2c1cc1n(c2=O)Cc2cc3ccccc3nc2-1` it is 1.42%.
Turning to `O=C1C[C@@H]2OCC=C3CN4CC[C@]56c7ccccc7N1[C@H]5[C@H]2[C@H]3C[C@H]46`, the cell viability stood at 100%.
The same measure for `N#Cc1nn(-c2c(Cl)cc(C(F)(F)F)cc2Cl)c(N)c1[S+]([O-])C(F)(F)F` (stereo unspecified): 104%; for `CCCCCCCCCc1ccc(O)cc1`: 105%; for `Cc1ncc(CNC(=O)N(CCCl)N=O)c(N)n1`: 111%.
In the case of `CCC12C=CCN3CC[C@@]4(c5ccc(OC)cc5N(C)[C@H]4[C@@](O)(C(=O)OC)[C@@H]1OC(C)=O)[C@@H]32` (stereo partly specified), the cell viability worked out at 94%.
The same measure for `CN1CCCCC1c1ccc(-c2cccnc2)nc1` (stereo unspecified): 107%; for `CC(=O)Oc1ccc(/C=C/c2cc(OC(C)=O)cc(OC(C)=O)c2)cc1`: 89.3%; for `CC1=C(O)C(=O)C=C2C1=CC=C1[C@@]2(C)CC[C@@]2(C)[C@@H]3C[C@](C)(C(=O)O)CC[C@]3(C)CC[C@]12C`: 30.1%.
Consider `Oc1cccc2cccnc12`, for which the cell viability worked out at 95.3%.
The same measure for `N.N.[Cl][Pt][Cl]` [Cisplatin]: 104%; for `N.N.[Cl][Pt][Cl]`: 103%; for `CCCN1C[C@H](CSC)C[C@@H]2c3cccc4[nH]cc(c34)C[C@H]21`: 101%.
